Data as given in article PMC12210985.
For at least one entry, the source does not settle the construct or the ends of the probe. For part of these data: Where a protein sequence is shown, tags need not be part of it.

Legend:
[1] = biological target: T1, MBP-Crp (Shewanella oneidensis MR-1) (UniProt Q8EJ49); experiment: EMSA; conditions: 10 uM cAMP, 0.18 and 0.36 uM protein; EMSA: 2 mM EDTA, 20 mM KCl, 0.5 mM DTT, 4% Ficoll-400, pH 8.0, 2 ug poly(dI-dC), 10 nM probe, 10 uM cAMP for Crp; recombinant protein; protein details: N-terminal MBP (pMAL-c4x); label: 5'-biotin on forward strand (EMSA); probe letters rebuilt from the primers and the genome
T1 sequence: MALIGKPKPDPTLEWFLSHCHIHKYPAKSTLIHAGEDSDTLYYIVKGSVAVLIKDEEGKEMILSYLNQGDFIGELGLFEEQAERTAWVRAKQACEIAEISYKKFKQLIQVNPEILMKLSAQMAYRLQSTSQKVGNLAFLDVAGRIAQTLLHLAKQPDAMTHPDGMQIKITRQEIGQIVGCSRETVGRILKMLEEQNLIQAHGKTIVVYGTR

[2] = biological target: T2, ArcA-P (Shewanella oneidensis MR-1) (UniProt Q8EAB9); experiment: EMSA; conditions: EMSA: 2 mM EDTA, 20 mM KCl, 0.5 mM DTT, 4% Ficoll-400, pH 8.0, 2 ug poly(dI-dC), 10 nM probe, 10 uM cAMP for Crp, recombinant protein, protein details: C-terminal 6xHis (pET22b), label: 5'-biotin on forward strand (EMSA), probe letters rebuilt from the primers and the genome
T2 sequence (looked up, limits assumed): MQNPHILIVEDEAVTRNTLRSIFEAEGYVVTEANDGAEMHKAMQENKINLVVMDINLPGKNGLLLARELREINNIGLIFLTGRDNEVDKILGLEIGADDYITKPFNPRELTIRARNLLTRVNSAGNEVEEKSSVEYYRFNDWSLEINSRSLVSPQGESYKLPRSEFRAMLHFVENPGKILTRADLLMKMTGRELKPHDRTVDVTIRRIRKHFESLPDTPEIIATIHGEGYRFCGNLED

[3] = biological target: T3, MBP-Crp-His6 (Shewanella oneidensis MR-1) (UniProt Q8EJ49); experiment: MST; conditions: cAMP, MST: 1x PBS pH 7.4, 0.05% Tween-20, 25 C, recombinant protein, protein details: N-terminal MBP, C-terminal 6xHis, label: 5'-biotin on forward strand (EMSA), probe letters rebuilt from the primers and the genome
T3 sequence: T1 sequence

[4] = biological target: T2, ArcA-P (Shewanella oneidensis MR-1); experiment: MST; conditions: phosphorylated ArcA, MST: 1x PBS pH 7.4, 0.05% Tween-20, 25 C, recombinant protein, protein details: C-terminal 6xHis (pET22b), label: 5'-biotin on forward strand (EMSA), probe letters rebuilt from the primers and the genome
[5] = ArcA-P 0-3.4 uM, competed by 50x unlabelled probe

Row | Sequence | binding result [1] | binding result [2, 5] | Kd [3] [nM] | Kd [4] [nM] | binding result ([2]; phosphorylated ArcA) | binding result ([3]; Kd shown only in figure) | binding result ([4]; Kd shown only in figure)
1 | ATCCACAAGCACTACGTTTTGAAGGAAAGACAATGCGCCGCGTTCCTGCTAAATACGTGGGTTTTAAACAAAACCTACTGCATTGAGCTAGCGCAGATTTATCACAGAAATGCGATCGCAATCACGCTGGTCGCGCGCATTCTACCCCAATTGCCGTGCCATCGCCACGAAAATTATAGGTGTTTTCAAACCTAAAATAAGGATTTACAAGAATCATGCGCTACAGCGTTCACCTTCCGACCGAACAAGGGTTCAGAAAGAGAGAGTATTACGGTCGTCAAATACTATAACATTAATTTTTAAAGAATTAATTTAGCGAAAGGTCGATAACCTGTGATATCTAGAAATCTAAATGCTTTTTCGCTTTATTCCTAATAACTTTAAACAAGATTTAACTCAGT (double strand) [nqr1 promoter probe (PnqrA1)] | binds | binds | 120 | 560 |  |  | 
2 | TGGCGAACAGTTAAGACAGATCGCTTGGCGATCTCGCTGAAAAGTCTCATTTCCACTGATGGCACCACGCTTATCGAGGCGGCTGCGTATCCCTGCCTGATGTTGACGATAAGCAACCATCGGCCCATCCCTGTATCACAAATAACAAAAAAATGCGAACTTAATCACGTGTCACCTATGAACAATTAGCACCTATAAATGACTTGTAAATCAGTGCAAAAATGTAATAATCGCCAAGATTATTGTTAATCCACTTAGTCTGTTTTGTTGTAGATTACTTCTCATTACATCAATGTGGTTGAAAATCGCACAAACGATTTAGCATTAGTGATTATGTGGTTGCCAATGTATTGCTTAACAAAAAATTTTCAAAGAGCAACCGCTTCTAGGAAAAACCATC (double strand) [nuo promoter probe (PnuoA)] | binds |  |  |  | binds | binds | binds
3 | CATCACAAATATCAACCATGAAAATTTTTAGATAAATTTAGGGTAGATGTTTGTTAACAGATAATCCGATAGTGGCGTCACATTCCGCTGTAATTCCGTAAGTAATATACATAAAAAAGCACTATTTTGTGACACGAATCTACATGAAGTCAGGGCAAGAACTCTAAATGTAGTTTTATAACAAATAACTCATAATTACGTCATAACTGATTTAGAGTTAACTTAACTATATAAAAATAGACAAAAATCCCCCTCTTCGGCCTCGAATCGACGCAAAGGTGTAAAAACCAATGTCTGCGGCGATTCCATGCACAATATGTGGCAATAAACCAAGTAAAACCTATGCAAGGCATTGGTTATTTTTAACCCAGTAACATACTTAGCGCCGCATTAACCTTTGCTTTACAGCAAAAGCTTGATAGCCTCGAACTAAGATAGTTTCCGTAGGAGAAATAGA (double strand) [nqr2 promoter probe (PnqrA2)] | binds | binds | 2020 | 680 |  |  | 
